In patent publication US20130123478:
For part of these data: At least one result comes from cells or an extract, where the contact may be indirect. For part of these data: Weaker means in comparison with the reference protein, sequence or condition of that experiment. For part of these data: Tags and fusion partners may be left off the protein sequences shown. For part of these data: Construct, isoform or probe ends are uncertain for at least one entry.

Legend:
[1] = target: Transferrin receptor (CD71, TfR) (Homo sapiens) (UniProt P02786); assay: SELEX; conditions: 2'-F pyrimidines (2'F modified RNA pool); functional clone from round 5; rounds 1-4 on recombinant protein, round 5 internalization on HeLa; purified recombinant protein
[2] = target: T1, Protein tyrosine kinase 7 (PTK7) (Homo sapiens) (UniProt Q13308); assay: flow cytometry; conditions: 5-fluorodeoxyuridine at U positions (all 9 T); 3' inverted dT; better than scrambled control, less than scgc8; inhibited Jurkat growth as efficiently as free drug at 500 nM; protein on the cell surface; label: 5' fluorescein; single-stranded DNA; variant of scgc8
T1 sequence (looked up, limits assumed): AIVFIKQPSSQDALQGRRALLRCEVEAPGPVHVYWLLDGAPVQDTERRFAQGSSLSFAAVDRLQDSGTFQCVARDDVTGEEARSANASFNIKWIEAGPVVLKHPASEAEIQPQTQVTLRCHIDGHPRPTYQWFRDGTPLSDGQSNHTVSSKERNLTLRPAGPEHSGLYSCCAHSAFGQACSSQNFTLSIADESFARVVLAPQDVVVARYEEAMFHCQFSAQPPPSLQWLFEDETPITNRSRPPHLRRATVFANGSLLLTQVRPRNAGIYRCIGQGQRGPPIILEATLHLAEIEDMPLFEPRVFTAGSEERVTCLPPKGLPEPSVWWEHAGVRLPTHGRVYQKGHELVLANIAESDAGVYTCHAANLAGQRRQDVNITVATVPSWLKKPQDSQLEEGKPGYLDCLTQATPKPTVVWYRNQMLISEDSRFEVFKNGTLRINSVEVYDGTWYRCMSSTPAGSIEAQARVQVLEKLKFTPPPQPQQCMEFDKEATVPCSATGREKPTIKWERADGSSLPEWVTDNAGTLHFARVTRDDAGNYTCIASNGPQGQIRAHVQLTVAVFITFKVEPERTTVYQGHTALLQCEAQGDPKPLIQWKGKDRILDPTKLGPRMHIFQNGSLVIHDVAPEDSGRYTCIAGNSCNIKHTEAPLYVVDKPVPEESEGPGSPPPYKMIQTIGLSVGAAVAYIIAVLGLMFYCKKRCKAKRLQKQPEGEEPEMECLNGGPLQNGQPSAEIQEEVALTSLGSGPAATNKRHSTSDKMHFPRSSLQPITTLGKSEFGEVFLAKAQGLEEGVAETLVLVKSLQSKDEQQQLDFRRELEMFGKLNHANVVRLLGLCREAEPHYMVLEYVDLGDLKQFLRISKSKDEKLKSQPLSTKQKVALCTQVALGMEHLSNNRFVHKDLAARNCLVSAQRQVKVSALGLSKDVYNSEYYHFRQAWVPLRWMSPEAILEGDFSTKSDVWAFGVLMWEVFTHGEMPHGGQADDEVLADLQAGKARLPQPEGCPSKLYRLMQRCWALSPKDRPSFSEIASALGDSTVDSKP

[3] = target: Transferrin receptor (CD71, TfR) (Homo sapiens) (UniProt P02786); assay: flow cytometry; conditions: FdC prodrug toxic to HeLa at 50 nM, protein on the cell surface, protein details: endogenous on HeLa or Jurkat cells

Row | Sequence | selection result [1] | other results
1 | GGGAGGUGAAUGGUUCUACGAUUAGGUUAGCGGCAGAUCACUACAAAGCCCCUAGAGCACAUGCUCCACCGCUUUACAUGCCGAGAUGACCACCGUAAUAGAAUUAAAUGCCCGCCAUGACCAG [clone 4 (c4)] | selected | –
2 | GGGAGGUGAAUGGUUCUACGAUUCAAACAUCUCACAGAUCAAUCCAAGGGACCUCGUUAAAGGACGACUCCCUUACAUGCGAGAUGACCACGUAAGGAAUUAAAUGCCCGCCAUGACCAG [clone 2 (c2)] | selected | –
3 | AUCUAACUGCUGCGCCGCCGGGAAAAUACUGUACGGUUAGA [scgc8-9] | – | binding result [2]: binds more weakly
4 | GGGAGGUGAAUGGUUCUACGAUCAUUACGGCUACCCCGUGUAACGUCUAGCCAAAGUAGUACCAAAAGUCAGUUACAUGCGAGAUGACCACGUAAUUGAAUUAAAUGCCCGCCAUGACCAG [clone 11 (c11)] | selected | –
5 | GGGGGAUCAAUCCAAGGGACCCGGAAACGCUCCCUUACACCCC [c2m8 (min8)] | – | binding result ([3]; 2'-F pyrimidines (2'F modified RNA pool), function after hybridization confirmed by FACS with FITC oligo, variant of clone 2 (c2)): binds
6 | GGGGGATCAATCCGGCTACCCCGTGTAACGTCTAGCCACACCCCGAATTAAATGCCCGCCATGACCAG / CTCCTCATGCCGCGCATCTCATTA [c2m9.1.drug (min9.1 extended) hybridized to 5FdC.oligo.1] | – | binding result ([3]; 2'-F pyrimidines in aptamer strand, 5-fluorodeoxycytidine at all C of DNA oligo, function after hybridization confirmed by FACS with FITC version of oligo, DPBS Ca2+ Mg2+ assembly): binds
